Experimental data from PubChem BioAssay AID2685 (National Center for Advancing Translational Sciences (NCATS), 2010).
This is one part of the list. Further columns of the screen follow, without active or inactive calls. Compounds called inactive in the main read-out are mostly missing here. The note in brackets gives the kind of curve behind each potency; many fits are weak.

Assay: qHTS Assay for Lipid Storage Modulators in Drosophila S3 Cells;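 as to cell number change: cells counted by Cell Tracker Red CMTPX staining in the red channel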
Details: BODIPY lipid droplet fluorescence, 18-24 h; for cell number change: measured here: cell count max response, cells fed with added oleic acid
How it was run: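 Laser-scanning cytometry quantifies lipid droplet accumulation (500–530 nm total intensity; droplet/cell object ratio) in oleic acid-fed (400 uM added) Drosophila S3 cells treated with a concentration series. 20 uM Triacsin C defined 100% inhibition.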

[1] = measured here: lipid fluorescence (Fed channel) AC50, cells fed with added oleic acid
[2] = measured here: cell number channel AC50, cells fed with added oleic acid

Row | Compound | cell number change [%] | AC50 [1] | AC50 [2]
1 | CCN(CC(=O)Nc1ccccc1Br)C1CCCCC1 | 3.17 | – | –
2 | Cc1ccc(Oc2ccccc2/C=N/O)cc1 | – | 6.51 µM [falling, single point] | –
3 | Cc1ccc(C(c2nnnn2CS(=O)(=O)c2ccc(C)cc2)N2CCC(C)CC2)cc1 (stereo not given) | – | 0.82 µM [falling, full curve] | –
4 | Cc1nc(NC(=O)c2ccc([N+](=O)[O-])cc2Cl)sc1C(=O)N(C)C | – | 1.3 µM [rising, full curve] | –
5 | Cc1ccc(CN2CCN(Cc3cc(=O)c4ccccc4[nH]3)CC2CCO)o1 (stereo not given) | 4.34 | 7.31 µM [rising, single point] | –
6 | CCOC(=O)C(=CNc1ccccc1Cl)C(=O)OCC | 1.46 | – | –
7 | CC(C)c1ccc(NC(=O)CN2CCN(C(=O)C3CCCO3)CC2)cc1 (stereo not given) | 22.2 | 4.61 µM [rising, full curve] | –
8 | CC(=O)c1cccc(NC(=O)C2COc3ccccc3O2)c1 (stereo not given) | 2.64 | – | –
9 | O=C(NC1CC1)c1ccc(Cl)c(S(=O)(=O)N2CCOCC2)c1 | 25 | – | –
10 | COCCNC(=O)c1ccc(NC(=O)C2(c3ccccc3)CCCC2)cc1 | -13.5 | 0.58 µM [falling, single point] | –
11 | COCc1ccc(CN2CCCC(CCC(=O)NCc3cccc(OC)c3)C2)o1 (stereo not given) | 36.3 | – | 29.1 µM [rising, single point]
12 | Cc1ccc2cc(C3CC(c4ccco4)=NN3C(=O)CCC(=O)O)c(Cl)nc2c1 (stereo not given) | -24.9 | – | –
13 | CCC1CCCCN1C(=O)COc1ccc2c3c(c(=O)oc2c1)CCC3 (stereo not given) | -1.23 | 0.259 µM [falling, full curve] | 0.82 µM [falling, full curve]
14 | COc1ccc(C(=O)c2ccccc2)c2c(O)ccc(C(=O)c3ccccc3)c12 | 2.73 | – | 0.164 µM [falling, full curve, poor fit]
15 | C=C1C2(C(=O)NCc3ccco3)CCC(C2)C1(C)C (stereo not given) | -0.376 | 0.116 µM [falling, full curve] | –
16 | O=C(O)c1cc(S(=O)(=O)Nc2cc(Cl)ccc2Oc2ccccc2)ccc1O | -18.7 | 0.184 µM [rising, full curve] | –
17 | CC(C)NS(=O)(=O)c1ccc(CCC(=O)NCc2cccnc2)cc1 | -1.21 | 0.92 µM [falling, full curve, poor fit] | –
18 | CCNS(=O)(=O)c1ccc(CCC(=O)NCc2ccccn2)cc1 | -7.3 | 29.1 µM [rising, single point] | –
19 | O=c1[nH]c2ccccc2nc1N1CCOCC1 | 19.4 | – | –
20 | C=CCN1c2ccccc2[C@]23C[C@@H](C(=O)OC)N(C(=O)c4cc(C)oc4C)C2=NC(C(=O)OC)=C(C(=O)OC)[C@H]13 | -62.8 | 1.03 µM [falling, full curve] | 1.16 µM [falling, full curve]
21 | CSc1ccccc1OCc1cc(C(=O)N2CCN(C3CCCC3)C(=O)C2)no1 | -15.6 | 2.06 µM [rising, partial curve, poor fit] | –
22 | COc1ccccc1N1CCN(C(=O)c2ccc3[nH]c(C)c(C)c3c2)CC1 | 2.29 | 29.1 µM [falling, single point] | –

Row | Compound | cell number change [%] | AC50 [1] | AC50 [2]
23 | CC(C)(C)N(Cc1ccccc1)C(=O)c1cccs1 | -7.94 | 0.13 µM [falling, full curve, poor fit] | –
24 | Cc1ccc(OC[C@H](O)[C@H](C)NC(C)C)c2c1CCC2 | -35.3 | – | 16.4 µM [falling, single point]
25 | CCOc1ccc(CN(C)C(=O)NNC(=O)c2ccc(C)cc2)cc1OC | 12.7 | – | –
26 | COC(=O)c1cccc(Cn2c(Cl)c(/C=N/NC(=O)c3ccco3)sc2=O)c1 | 3.54 | – | –
27 | COc1ccc2nc(NCCO)[nH]c2c1 | -45 | 1.46 µM [falling, full curve] | 20.6 µM [falling, single point]
28 | C(=N\c1nccs1)/c1c[nH]c2ccccc12 | 15.4 | 3.26 µM [falling, single point] | –
29 | O=S1(=O)CCC(SCc2nc3sccn3c2Br)C1 (stereo not given) | 9.3 | – | –
30 | CCCc1c(C(=O)N/N=C/c2ccccc2C(F)(F)F)nnn1-c1nonc1N | 44.7 | 20.6 µM [falling, partial curve] | 29.1 µM [rising, single point]
31 | CC1Cc2ccccc2N1C(=O)COc1cccc(-n2cnnn2)c1 (stereo not given) | 2.17 | 0.92 µM [rising, partial curve] | 0.326 µM [rising, full curve]
32 | CC1Cc2ccccc2N1C(=O)COC(=O)Cc1ccc(F)cc1 (stereo not given) | – | – | 0.731 µM [falling, full curve]
33 | O=C(Nc1ccccc1C(=O)Nc1ccccn1)c1ccccc1F | -3.86 | 29.1 µM [falling, single point] | –
34 | CC1CCCN(CCOCCOc2ccc(Br)cc2Cl)C1 (stereo not given) | -2.2 | 0.092 µM [rising, full curve, poor fit] | –
35 | CCCN1CCN(C(=O)C2CCN(c3nnc(C)c4c(C)n(-c5ccc(C)cc5)nc34)CC2)CC1 | 50 | 29.1 µM [falling, single point] | –
36 | CCOC(=O)c1ccc([N+](=O)[O-])cc1NC(C)=O | 15.1 | 32.6 µM [rising, single point] | –
37 | Cc1cc(Br)c2c(c1)C(O)(N1CCCCC1C)C(=O)N2 (stereo not given) | -58 | 29.1 µM [falling, single point] | 16.4 µM [falling, single point]
38 | CC1CC(C)CN(CCC(=O)Nc2cccc(Cl)c2)C1 (stereo not given) | 3.38 | – | –
39 | Cc1ccc2nc(-c3ccccc3)cc(C(=O)Nc3cccnc3)c2c1 | -5.78 | 25.9 µM [falling, single point] | –
40 | Cc1ccc(S(=O)(=O)NCCC(=O)Nc2cccc(S(N)(=O)=O)c2)cc1C | 25.6 | 0.206 µM [falling, single point] | –
41 | Cc1ccc(NC(=O)C2CCCN2C(=O)NC2CCCCC2)cc1F (stereo not given) | 33.8 | 0.13 µM [rising, full curve, poor fit] | 23.1 µM [rising, partial curve, poor fit]
42 | Nc1cc(C(=O)OCC(=O)c2ccc(CC(=O)N3CCOCC3)s2)ccc1Cl | 3.41 | – | –
43 | O=C(OCCOc1cccc(Cl)c1)c1cc(S(=O)(=O)N2CCCCC2)ccc1N1CCOCC1 | 25.4 | – | 4.61 µM [rising, single point]
44 | O=C(Cc1cc(=O)[nH][nH]1)N/N=C/c1cccc(Cl)c1Cl | -28.5 | 1.16 µM [falling, full curve] | –

Row | Compound | cell number change [%] | AC50 [1] | AC50 [2]
45 | COc1ccccc1-c1cc(C(=O)Nc2ccc(F)cc2F)no1 | -13.5 | 1.84 µM [falling, partial curve] | –
46 | C=CC[n+]1c(-c2ccccc2)csc1NC(C)(C)C | 45.8 | 23.1 µM [rising, single point] | 16.4 µM [rising, single point]
47 | Cc1cc(C)cc(NCc2ccncc2)c1 | -10.1 | – | –
48 | O=C(NCc1ccccc1Cl)C1CCN(c2cnccn2)CC1 | -9.13 | 4.61 µM [falling, single point] | –
49 | COc1ccc(/C(N)=N/OC(=O)CCc2ccccc2)cc1 | 23.5 | 0.82 µM [rising, single point] | –
50 | CCn1c2ccccc2c2cc(/C=N/n3cnnc3)ccc21 | -23 | – | 7.31 µM [falling, partial curve, poor fit]
51 | CCOc1ccccc1NC(=O)Cn1c(=O)n(-c2ccccc2)c(=O)c2oc3ccccc3c21 | -3.85 | 6.51 µM [rising, single point] | 6.51 µM [rising, single point]
52 | C/C(=C\C(=O)C(F)(F)F)Nc1ccc(C)cc1 | -3.47 | – | –
53 | CC(OC(=O)c1cccc(NS(C)(=O)=O)c1)C(=O)Nc1ccc(N2CCOCC2)cc1 (stereo not given) | – | 0.731 µM [falling, full curve] | –
54 | CCN(CC)c1ccc([C@H]2[C@@H]3CCCC[C@]3(O)CCN2CC(=O)NCc2ccco2)cc1 | 14.6 | 13 µM [rising, partial curve] | –
55 | Fc1cccc(C2NN=C(c3ccccc3)S2)c1 (stereo not given) | -16.7 | 0.259 µM [rising, full curve, poor fit] | –
56 | Cc1cc(C)nc(NC(=O)c2c(-c3c(Cl)cccc3Cl)noc2C)n1 | 86.7 | 1.84 µM [rising, partial curve] | 11.6 µM [rising, partial curve]
57 | CCOc1ccccc1N1CCN(C(=O)c2cccc(-c3ccc(O)cc3)c2)CC1 | -6.57 | 0.731 µM [falling, single point] | –
58 | COCCNC(=S)NCc1ccc2[nH]c3c(c2c1)CCCC3 | -26.9 | 23.1 µM [falling, partial curve, poor fit] | –
59 | Cc1ccc(SCCN2CCN(CCc3ccccc3)CCC2=O)cc1 | 20 | 7.31 µM [rising, partial curve] | –
60 | O=C(O)CCCCCn1c(SCc2cc(=O)n3cc(Cl)ccc3n2)nc2ccsc2c1=O | 33.7 | 10.3 µM [rising, partial curve] | 11.6 µM [rising, partial curve]
61 | COc1cccc(NC(=O)C(c2ccccc2)N2CCCC2)c1 (stereo not given) | – | 2.06 µM [falling, partial curve] | –
62 | CN(C)C(=O)CNC(=O)C1CCCCC1 | -17.1 | 0.517 µM [falling, full curve, poor fit] | –
63 | O=C1/C(=C/c2cccnc2)N=C2CCCCCN12 | – | 6.51 µM [rising, single point] | 5.17 µM [rising, single point]
64 | CCc1cc(C(=O)Nc2cc(Cl)ccc2N2CCN(C)CC2)sc1C | 50.5 | – | 4.61 µM [rising, full curve]
